# From the supplement of paper PMC3334620
# Whole data set: some 33,000 sequences, median “E-score (-0.5 to 0.5)” near -8e-05, cut for the highest 2% near 0.23. The list shows a part of the results.
# Target: T1, Nrg2 (UniProt P38082)
# T1 sequence: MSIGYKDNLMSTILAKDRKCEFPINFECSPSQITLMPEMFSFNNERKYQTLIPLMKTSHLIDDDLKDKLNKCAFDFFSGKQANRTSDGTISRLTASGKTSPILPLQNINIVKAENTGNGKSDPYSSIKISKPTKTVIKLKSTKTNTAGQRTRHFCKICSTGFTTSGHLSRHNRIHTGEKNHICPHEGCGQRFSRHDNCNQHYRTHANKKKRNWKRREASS
# Test: PBM E-score (8-mer binding enrichment) (E-score (-0.5 to 0.5)); higher = stronger / more preferred TF binding
# Settings: protein concentration: 100 nM; construct: GST-full length
# Protocol: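 Universal 'all 10-mer' protein binding microarrays (Agilent AMADID 015681) probed with GST-tagged S. cerevisiae TFs (full-length or DBD) made by in vitro transcription/translation (PURExpress), about 100-200 nM. Bound TF was detected with fluorescent anti-GST. Each ungapped 8-mer (which stands for itself and its reverse complement) is scored by the PBM enrichment score (E-score), a modified Wilcoxon-Mann-Whitney statistic from -0.5 to +0.5, computed with the Universal PBM Analysis Suite. Scale: above 0.35 generally sequence-specific binding.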
row,Sequence,PBM E-score
1,CTCGACTC,0.0209
2,ACCTACAA,0.0812
3,GAAATTCC,0.0392
4,ATGGTAAG,0.0032
5,CACCCTAA,0.102
6,GCGCTCAA,-0.115
7,CATTCTGA,0.0677
8,GGATGGAC,-0.065
9,ACAGTTCA,0.121
10,CGCCTCCA,-0.0712
11,ATCACTGC,0.155
12,GTCTGTAA,0.0552
13,CTACCCGC,-0.0291
14,CCTCCCGA,-0.265
15,TCACTGGA,-0.0905
16,GAACGATC,-0.0973
17,AGTTAAAC,0.123
18,AACCATGC,0.103
19,AAAGTCAA,0.0628
20,ACGGCCAG,-0.0637
21,ACCACATG,0.121
22,CCGGAACA,-0.0209
23,GCTCTGAC,-0.138
24,GGCCCAAC,-0.0164
25,TAAATGAA,0.0819

row,Sequence,PBM E-score
1,ACCCCGTC,-0.171
2,ACTTAGGC,-0.184
3,CTGCCAAC,-0.0286
4,CACTCTAG,-0.166
5,CCCGGAGG,-0.366
6,GCTGTCAC,-0.083
7,CGGTTCCA,-0.11
8,AGGGTTTC,0.0499
9,GATCACAC,-0.0126
10,CTGAAAAA,-0.0457
11,AGAACGGG,-0.029
12,ACACCGCC,-0.134
13,ACAACGTA,0.0175
14,CCTTATTC,-0.0168
15,AGGGTTAC,-0.14
16,CGGCCCCG,-0.232
17,AAATCAAT,0.13
18,GCAGGCAA,-0.0434
19,CTATCTAA,0.0964
20,CGATGCAC,0.00525
21,AACAAGAT,0.112
22,CAACCGCG,0.271
23,AGTCCAGG,0.00474
24,ACAGAGAC,0.00483
25,AGGACTGA,-0.19

row,Sequence,PBM E-score
1,AGTCATTA,-0.273
2,CGCTAAGC,-0.027
3,ACACTCGC,0.141
4,GTAGGTCA,-0.162
5,CGGTGGTA,0.0251
6,GAGGCAGC,-0.126
7,GCCAATCA,-0.153
8,GACATCCA,-0.133
9,GAGTTGGA,0.0898
10,GGGGGAAC,-0.362
11,CATATCGC,-0.0386
12,ACCTGCAC,-0.0825
13,GGTTACAC,-0.165
14,GAAATTGC,0.0668
15,CCCGAGAC,-0.105
16,AAACCACG,9e-05
17,ATTTGACG,0.075
18,CCTCCCTC,0.0294
19,GCAACTCC,-0.0934
20,ATCAGATG,-0.0502
21,GAACCCAA,0.0482
22,GGATCTCA,0.0559
23,AATGCGGC,-0.00108
24,CGTGATAC,-0.00164
25,GTATGGGA,-0.244

row,Sequence,PBM E-score
1,GCGCGAAC,0.145
2,CAAAGTCG,-0.0236
3,AGTGGTAG,-0.0648
4,ATTGTGCC,0.0165
5,ATGGTAGG,-0.00768
6,TCCAACGA,-0.162
7,ACCGAAAC,0.0442
8,CTAGATTA,0.129
9,CAGTACGA,0.206
10,CTTAGGGC,-0.127
11,CTATAAAC,-0.086
12,CTACGCCC,-0.00369
13,AACGGGAT,0.0387
14,TAGTTCGA,0.155
15,ACCCTTTG,0.133
16,CCACCAGG,-0.258
17,AGTAGGGC,-0.0917
18,CGTTTTAC,-0.207
19,GTGAGTAA,0.061
20,ACCGGGGG,-0.411
21,GTCCTAAA,-0.052
22,ACGTCGCC,-0.156
23,GTATAATA,0.163
24,ATTGATTA,0.207
25,ATTAAATC,0.165

row,Sequence,PBM E-score
1,GTGTACAC,-0.0231
2,TACAGGCA,0.00256
3,AGGGCATA,0.057
4,CGTGTTAC,0.0578
5,ACCCAGCT,-0.104
6,ACGCCGGG,-0.124
7,AGATCATG,0.0864
8,AGCCAGAG,-0.251
9,AGGTCACC,-0.134
10,CAATGTAG,-0.0917
11,GACGTAGA,-0.154
12,AATAATAC,0.102
13,AAGTGCAC,0.139
14,CCTGTCTC,-0.0655
15,GCGACTTA,-0.215
16,ACACGCTA,-0.0187
17,CGATAAAG,0.00251
18,CTCCGTAC,0.0676
19,AGTCATGA,0.0922
20,ATACGGCA,0.193
21,ACGTGTAT,0.173
22,AACACTAG,0.152
23,CCGCGCTA,0.163
24,CTAGATAA,-0.0287
25,AATTGCAT,0.0011

# For convenience, some entries already given:
row,Sequence,PBM E-score
11,GACGTAGA,-0.154
12,AATAATAC,0.102
13,AAGTGCAC,0.139

# (next part)

row,Sequence,PBM E-score
1,ATCCTCTG,0.0437
2,ATGGCCCC,-0.285
3,GCGATACA,-0.00403
4,CGAAGTAA,0.155
5,ATATCAAT,0.212
6,ACATCTGA,-0.219
7,CAGTGGCA,-0.169
8,CAGAATTA,-0.0457
9,AGGGATGA,0.0313
10,GAGGAAGA,-0.0296
11,CAGCAAGG,-0.0834
12,ACAAATGT,0.00952
13,GTTCCATA,0.117
14,CACCTACG,-0.158
15,AGCTGCAT,-0.0431
16,CGCGGGTA,0.143
17,AACGACTG,-0.0845
18,TTCCAAAA,-0.107
19,ATACTAGA,0.0499
20,AGTAGGAT,-0.0316
21,AAATTTCC,0.113
22,ATGAGTTA,-0.0464
23,CATTGTCA,0.132
24,GACTTCTC,0.0281
25,CGAAAGCA,0.0802

row,Sequence,PBM E-score
1,AGGTAGAC,-0.0147
2,ATAGGGTC,0.212
3,CAACGTGG,-0.0468
4,ACCATTAC,-0.0379
5,CCAACCCC,0.0404
6,TGCACCCA,0.0184
7,GAGCGGAC,-0.162
8,TATATCGA,0.278
9,ATTCACTA,0.175
10,CCAGGACC,-0.11
11,GTGTACCA,-0.0651
12,GATGTGGC,-0.114
13,CTCGCGTA,-0.169
14,TAGTATAA,-0.0423
15,GCGTCCCA,-0.104
16,AAAGCCCT,-0.02
17,CGTAAGAC,-0.276
18,ATCTGGGG,-0.14
19,TACGCAGA,0.132
20,TGAAACAA,0.0421
21,AACCTCCG,-0.0844
22,GGACAACC,-0.0218
23,CGAGGCCC,-0.136
24,CCCTGAGA,0.235
25,CCAACGTA,-0.0757

row,Sequence,PBM E-score
1,ATCCATGC,-0.131
2,GGTTTAGA,-0.0936
3,AAGATCCG,-0.188
4,ACTGTGCC,0.044
5,CTAACGAC,-0.00279
6,AAAGCTTT,0.0426
7,ACTCAGAC,0.0411
8,AGTACGGA,0.122
9,ATAGTCTC,-0.0736
10,AAAACAGT,0.199
11,ACAGCCCG,-0.152
12,ACGCCTTG,-0.00755
13,AGTCTGAA,-0.0298
14,CTGATGGA,-0.033
15,AGAGAGAA,0.0153
16,AAAAGGCC,-0.197
17,CCGGCTGC,-0.173
18,CAATAAAA,0.065
19,AATCTCTG,-0.0668
20,CTGTAGAA,0.0663
21,AGAGGAAA,0.0137
22,GAGTCAGA,-0.0246
23,AGTGTTAA,0.114
24,AAAAACGG,0.0162
25,CCAATTAA,0.0533

row,Sequence,PBM E-score
1,ACTAACAG,0.118
2,AACTCCGA,-0.0256
3,ACACAGAG,-0.0315
4,CCGTTATA,-0.0815
5,GATAGCAA,0.0872
6,ATGCATTA,0.177
7,AGGACAAT,0.0916
8,ACTGAGCC,-0.0602
9,CAGAGAGA,0.0811
10,AAATCCAA,0.00036
11,GAAGGAGA,-0.0732
12,ATAACTGG,0.0459
13,CTAGCAAG,-0.0594
14,CAAACCTG,0.0357
15,GGAGAACA,-0.0349
16,GGTAAAAC,-0.165
17,ACAATCCG,0.00449
18,GAGGCCTA,-0.0547
19,AGGGCGCA,0.0346

# Quoted at random: 4 records from the list
row,Sequence,PBM E-score
11,ACAGCCCG,-0.152
12,ACGCCTTG,-0.00755
4,CGTGTTAC,0.0578
22,ACGTCGCC,-0.156
